# Measurements taken from PubChem BioAssay AID330 (DTP/NCI, 2004).
# The list shows only some results of the screen, not a fair sample: it is rich in T/C values a quarter to a half above the control, in often repeated tests (any T/C) and in doses without a T/C. Further doses and runs are listed elsewhere. T/C is the treated group as % of the vehicle group. Some doses have a count of surviving animals in place of a T/C: the source files T/C as zero there, which appears to mark a toxic dose or a test without result, not a measured value. Some survivor counts are full or nearly so, which does not show that the dose was tolerated: survival well below the control is almost never listed, so the zero probably covers shortened survival too. Counts of survivors are from the toxicity check (mostly the fifth day) where no day follows; animals may have died later. Schedules are NCI's codes, taken here to give the interval after Q, in days (D) or hours (H), and the number of doses after X. Some doses were run more than once; their values stand side by side, smallest first. For survival time, the PubChem record calls one and a half times the control and up active, and a quarter to a half above the control has no call in these data; cut-offs in other NCI protocols can differ. Some T/C values are followed by the survivors on the day toxicity was checked, most often the fifth; where none is given, no animal had died by that day.
# Test system: P388 leukemia ip, CD2F1 mice, survival T/C
# Assay: NCI In Vivo Anticancer Drug Screen. Data for tumor model P388 Leukemia (intraperitoneal) in CD2F1 (CDF1) mice
# Settings: T/C endpoint: median survival time, higher T/C = longer survival
# [1] = dose: 200.0 mg/kg/injection, schedule: Q01DX005 (ip), vehicle: Klucel (hydroxypropylcellulose) (HPC)
# [2] = dose: 200.0 mg/kg/injection, schedule: Q01DX005 (ip), vehicle: saline with Tween-80
# [3] = dose: 200.0 mg/kg/injection, schedule: Q01DX009 (ip), vehicle: saline with Tween-80
# [4] = dose: 50.0 mg/kg/injection, schedule: Q01DX009 (ip), vehicle: saline with Tween-80
# [5] = dose: 100.0 mg/kg/injection, schedule: Q01DX005 (ip), vehicle: saline with Tween-80
smiles,measurement,setting,value
CCCNC1=C(C)C(=O)C2=C(C1=O)[C@H](COC(N)=O)[C@]1(OC)[C@@H]3N[C@@H]3CN21,T/C,"dose: 3.13 mg/kg/injection, schedule: Q01DX009 (ip), vehicle: saline sonified",143 % of control
same,survivor count,"dose: 12.5 mg/kg/injection, schedule: Q01DX009 (ip), vehicle: saline sonified",6 of 6
same,survivor count,"dose: 25.0 mg/kg/injection, schedule: Q04DX003 (ip), vehicle: saline with Tween-80",6 of 6
same,survivor count,"dose: 50.0 mg/kg/injection, schedule: Q04DX003 (ip), vehicle: saline with Tween-80",6 of 6
CCN=C(NCC)c1ccc(NC(=O)Nc2ccc(NC(=O)Nc3ccc(C(=NCC)NCC)cc3)cc2)cc1,T/C,"dose: 12.5 mg/kg/injection, schedule: Q01DX005 (ip), vehicle: Klucel (hydroxypropylcellulose) (HPC)",142 % of control
same,T/C,"dose: 25.0 mg/kg/injection, schedule: Q01DX005 (ip), vehicle: Klucel (hydroxypropylcellulose) (HPC)",138 % of control
same,survivor count,"dose: 50.0 mg/kg/injection, schedule: Q01DX005 (ip), vehicle: Klucel (hydroxypropylcellulose) (HPC)",4 of 6
same,survivor count,"dose: 100.0 mg/kg/injection, schedule: Q01DX005 (ip), vehicle: Klucel (hydroxypropylcellulose) (HPC)",0 of 6
same,survivor count,[1],0 of 6
CC(=O)OCC12C=CC(O1)C1C(=O)OC(=O)C12 (configuration not stated),survivor count,[2],5 of 5
CCOC(=O)CCC(C)(C#N)c1ccccc1 (configuration not stated),survivor count,[3],4 of 6
same,survivor count,"dose: 400.0 mg/kg/injection, schedule: Q01DX009 (ip), vehicle: saline with Tween-80",5 of 6
Cc1cc(N(CCOS(C)(=O)=O)CCOS(C)(=O)=O)ccc1C=Nc1ccc(-c2csc(-c3ccc(Br)cc3)n2)cc1,T/C,[4],144 % of control [5 of 6 alive]
same,survivor count,[3],6 of 6
C=CS(C=C)=NS(=O)(=O)c1ccc(C)cc1,T/C,"dose: 25.0 mg/kg/injection, schedule: Q01DX009 (ip), vehicle: other",130 and 132 % of control
same,survivor count,"dose: 50.0 mg/kg/injection, schedule: Q01DX009 (ip), vehicle: other",0 of 6 and 1 of 6
same,survivor count,"dose: 100.0 mg/kg/injection, schedule: Q01DX009 (ip), vehicle: other",0 of 6
same,survivor count,"dose: 200.0 mg/kg/injection, schedule: Q01DX009 (ip), vehicle: other",0 of 6
Cc1noc(NS(=O)(=O)c2ccc(N=Nc3cc(N=Nc4ccc(S(=O)(=O)Nc5onc(C)c5C)cc4)c4c(NC(=O)C(Cl)Cl)cccc4c3O)cc2)c1C (tested in a mixture with another compound),T/C,[5],126 and 128 % of control
same,T/C,[2],140 % of control
same,survivor count,[2],5 of 5
same,survivor count,"dose: 400.0 mg/kg/injection, schedule: Q01DX005 (ip), vehicle: saline with Tween-80",1 of 5
CCCCCN(CCCCC)c1nsc(Cl)n1,survivor count,[3],6 of 6
CC1=Nc2ccccc2[S+](C)/C1=C(\[O-])c1ccccc1 (configuration not stated),survivor count,"dose: 50.0 mg/kg/injection, schedule: Q01DX005 (ip), vehicle: saline with Tween-80",0 of 6
same,survivor count,[5],0 of 6
same,survivor count,[2],0 of 6
CN(C)CCCN1c2ccccc2Sc2ccc(C(F)(F)F)cc21,T/C,"dose: 16.5 mg/kg/injection, schedule: Q01DX009 (ip), vehicle: saline",127 % of control [5 of 6 alive]
same,T/C,"dose: 25.0 mg/kg/injection, schedule: Q01DX009 (ip), vehicle: saline with Tween-80",128 % of control
same,survivor count,"dose: 25.0 mg/kg/injection, schedule: Q01DX009 (ip), vehicle: saline",4 of 6
same,survivor count,"dose: 37.0 mg/kg/injection, schedule: Q01DX009 (ip), vehicle: saline",4 of 6
same,survivor count,[4],2 of 6
[CH3][Sn]([CH3])([O]C(=O)c1ccccc1)[O]C(=O)c1ccccc1,survivor count,[1],0 of 6
